# From patent US10640547B2, “Immunotherapy against melanoma and other cancers” (IMMATICS BIOTECHNOLOGIES GMBH, priority 2016, dated 2020)
# For part of these data: For expression read-outs the peptide stands for its source gene, whose mRNA was measured; the gene is not named for every peptide.
# What was measured:
# [1] = test system: mRNA of source genes in melanoma and normal tissues; experiment: Expression profiling of genes encoding the peptides (RNAseq); set-up: species or system human; key: very highly over-expressed in tumors compared to a panel of normal tissues (+++); highly over-expressed in tumors compared to a panel of normal tissues (++); over-expressed in tumors compared to a panel of normal tissues (+); settings: over-expression in tumors compared to a panel of normal tissues
# [2] = test system: HLA molecules of melanoma, other tumor and normal tissue samples; experiment: Identification and relative quantitation of tumor associated peptides presented on the cell surface (HLA immunoprecipitation, label-free LC-MS); set-up: species or system human; key to Peptide Presentation (presentation score): very highly over-presented on tumors compared to a panel of normal tissues (+++); highly over-presented on tumors compared to a panel of normal tissues (++); over-presented on tumors compared to a panel of normal tissues (+); settings: for Peptide Presentation (presentation score): over-presentation on tumors compared to a panel of normal tissues; for Additional Entities (additional tumor types on which the peptide was found) / relevant organs/diseases (additional tumor types on which the peptide was found): over-presented on more than 5% of the measured tumor samples, or presented on more than 5% with ratio of geometric means tumor vs normal tissues larger than 3
Substance,GeneExpression (expression score of source gene) [1],Peptide Presentation (presentation score) [2],Additional Entities (additional tumor types on which the peptide was found) [2],relevant organs/diseases (additional tumor types on which the peptide was found) [2]
12: peptide found in P2RX7 (gene looked up) (RLDDKTTNV; listed as Homo sapiens) [compound 12],++,++,,
42: peptide found in IL4I1 (gene looked up) (VLKADVVLL; listed as Homo sapiens) [compound 42],+++,+++,,
38: peptide found in PBK (gene looked up) (KLGFGTGVNVYL; listed as Homo sapiens) [compound 38],+++,+++,,
126: peptide found in GPNMB (gene looked up) (SLIDFVVTC; listed as Homo sapiens) [compound 126],++,+,"NSCLC, HCC, HNSCC","RCC, PC, NHL, OC, Uterine Cancer"
50: peptide found in CCL8 (gene looked up) (HLDQIFQNL; listed as Homo sapiens) [compound 50],++,+++,,
55: peptide found in CDC45 (gene looked up) (NLDKLYHGL; listed as Homo sapiens) [compound 55],+,+++,,
154 (TLGTATFTV; listed as Homo sapiens) [compound 154],,,,"Urinary bladder cancer, Uterine Cancer"
3 (VLFKDPVSV; listed as Homo sapiens) [compound 3],,+++,,
113 (VLYSLVSKI; listed as Homo sapiens) [compound 113],,+++,,
184 (VLFSSPPVILL; listed as Homo sapiens) [compound 184],,+,HNSCC,"NSCLC, Brain Cancer, PrC, CLL, NHL, Esophageal Cancer, Urinary bladder cancer"
103 (SLDAVMPHL; listed as Homo sapiens) [compound 103],,+++,,
67 (YVDSEGIVRM; listed as Homo sapiens) [compound 67],,+++,,
82 (GIDDLHISL; listed as Homo sapiens) [compound 82],,+++,,
41 (LLDDPTNAHFI; listed as Homo sapiens) [compound 41],,+++,,
17 (GVVHGVATV; listed as Homo sapiens) [compound 17],,++,NHL,"AML, Urinary bladder cancer"
